Laboratory results: PubChem BioAssay AID686943 (Drosophila RNAi Screening Center, 2013)

Aim: 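Fly genes whose loss alters ERK activation after insulin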 (primary screen)
System: Drosophila S2R+ haemocyte-like cells expressing YFP-tagged ERK (Rolled)
Reagents: long dsRNA against Drosophila genes
Conditions: insulin stimulation versus unstimulated cells; dose and duration not given
Measured: 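Antibody staining for doubly phosphorylated ERK divided by ERK-YFP signal, as plate z-scores, in insulin-treated and untreated cells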
Direction: replicate 1, z-score of dpERK with insulin and replicate 2, z-score of dpERK with insulin: higher = more active ERK per ERK-YFP after insulin; replicate 1, z-score of dpERK under basal conditions: higher = more basal active ERK per ERK-YFP; replicate 1, z-score of ERK-YFP with insulin: higher = more YFP-tagged ERK signal
In all, the deposit lists about 23,000 reagents; below is an unselected part of those that have a named target and a result. 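Extra replicates exist only for a retested subset of genes; insulin dose and duration not given; both raised and lowered dpERK matter.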 The record does not give: the amount of reagent, the time to read-out.

target | DRSC id | replicate 1, z-score of dpERK with insulin | replicate 2, z-score of dpERK with insulin | replicate 1, z-score of dpERK under basal conditions | replicate 1, z-score of ERK-YFP with insulin
tRNA:Leu-CAA-2-3 | DRSC13633 | 0.34 | -0.06 | -2.36 | -0.23
CG13110 | DRSC02208 | 0.54 | -1.23 | 0.11 | 0.33
Rs1 | DRSC05945 | 0.85 | 0.59 | -1.41 | 0.45
AANATL7 | DRSC18616 | -1.09 | -0.55 | -0.01 | 0.04
CG43100 (retired record) | DRSC01001 | 0.59 | 0.36 | -0.05 | 0.26
Nop56 | DRSC14699 | -0.27 | -0.17 | 0.03 | -1.72
Jon66Cii | DRSC10778 | 0.29 | -0.29 | 0.43 | -0.27
babo | DRSC07581 | 0.07 | 0.72 | 0.47 | -0.02
Alp13 | DRSC15781 | 0.65 | 0.33 | -0.81 | 0.26
enok | DRSC04096 | 0.35 | 0.5 | -0.27 | 0.09
CG3713 | DRSC18648 | 0.5 | 0.66 | 0.58 | -0.17
Sp7 | DRSC15461 | 0.13 | 0.91 | -0.27 | -0.03
natalisin | DRSC14966 | -0.46 | 1.6 | -1.11 | 0.01
natalisin | DRSC14967 | 1.1 | 0.33 | 0.45 | -1.11
Pfdn4 | DRSC09761 | 0.54 | 1.24 | – | -0.35
CG9316 | DRSC03195 | 0.15 | 0.37 | 0.62 | 0.07
jar | DRSC16974 | -0.35 | -0.02 | -0.08 | -0.04
scu | DRSC20369 | -0.68 | -0.39 | -0.02 | -0.2
CG34461 | DRSC10767 | 1.1 | 0.12 | -0.54 | 0.5
CG2269 | DRSC06833 | 0.68 | 0.99 | 0.3 | -0.12
CG18371 | DRSC06733 | -0.11 | 0.82 | 0.57 | 0.73
Nach | DRSC07478 | -0.1 | -0.12 | 0.86 | -0.28
Mgat1 | DRSC07463 | -0.36 | 0.01 | 0.66 | -0.15

Reformatted: results already given.
target	DRSC id	replicate 1, z-score of dpERK with insulin	replicate 2, z-score of dpERK with insulin	replicate 1, z-score of dpERK under basal conditions	replicate 1, z-score of ERK-YFP with insulin
Rs1	DRSC05945	0.85	0.59	-1.41	0.45
AANATL7	DRSC18616	-1.09	-0.55	-0.01	0.04
CG43100 (retired record)	DRSC01001	0.59	0.36	-0.05	0.26
Nop56	DRSC14699	-0.27	-0.17	0.03	-1.72
